Results on three compounds are retold here after PubChem BioAssay AID248 (DTP/NCI, 2004).

This assay deals with L1210 leukemia ip in BDF1 mice, survival T/C. Briefly: NCI In Vivo Anticancer Drug Screen. Data for tumor model L1210 Leukemia (intraperitoneal) in B6D2F1 (BDF1) mice. The settings on record: T/C endpoint: mean survival time, higher T/C = longer survival.

The list does not hold the whole screen: it is rich in T/C values a quarter to a half above the control, in often repeated tests (any T/C) and in doses without a T/C. Further doses and runs are listed elsewhere. T/C is the treated group as % of the vehicle group. Some doses have a count of surviving animals in place of a T/C: the source files T/C as zero there, which appears to mark a toxic dose or a test without result, not a measured value. Some survivor counts are full or nearly so, which does not show that the dose was tolerated: survival well below the control is almost never listed, so the zero probably covers shortened survival too. Counts of survivors are from the toxicity check (mostly the fifth day) where no day follows; animals may have died later. Schedules are NCI's codes, read here as Q, the interval in days (D) or hours (H), X, the number of doses. Where survival is the endpoint, this PubChem deposit counts one and a half times the control or more as active, and values a quarter to a half above the control carry no call in these data; other NCI protocols may use other cut-offs. Some entries were tested several times; the values are given in rising order.

For the compound `CS(=O)(=O)OCCN(CCOS(C)(=O)=O)c1ccc(C(=O)O)cc1`, the T/C reads like this: (dose: 200.0 mg/kg/injection, schedule: Q01DX001 (ip), vehicle: other) 126 % of control; (dose: 400.0 mg/kg/injection, schedule: Q01DX001 (ip), vehicle: other) 142 and 146 % of control. For the same compound, the survivor count by setting is: (dose: 200.0 mg/kg/injection, schedule: Q01DX015 (ip), vehicle: other) 5 of 6; (dose: 267.0 mg/kg/injection, schedule: Q01DX015 (ip), vehicle: other) 5 of 6; (dose: 330.0 mg/kg/injection, schedule: Q01DX015 (ip), vehicle: saline) 5 of 6; (dose: 400.0 mg/kg/injection, schedule: Q01DX001 (ip), vehicle: saline) 2 of 4; (dose: 400.0 mg/kg/injection, schedule: Q01DX015 (ip), vehicle: other) 0 of 6; (dose: 600.0 mg/kg/injection, schedule: Q01DX001 (ip), vehicle: other) 2 of 6. Besides, the survivor count by setting is: (dose: 600.0 mg/kg/injection, schedule: Q01DX001 (ip), vehicle: saline) 1 of 4; (dose: 600.0 mg/kg/injection, schedule: Q01DX015 (ip), vehicle: other) 0 of 6.

On to `FC(F)(F)c1ccc2c(c1)N(CCCN(CCCl)CCCl)c1ccccc1S2`, for which the survivor count (dose: 25.0 mg/kg/injection, schedule: Q01DX009 (ip), vehicle: saline with Tween-80) is reported as 3 of 6; the survivor count (dose: 50.0 mg/kg/injection, schedule: Q01DX009 (ip), vehicle: saline with Tween-80) was 0 of 6; the survivor count (dose: 100.0 mg/kg/injection, schedule: Q01DX009 (ip), vehicle: saline with Tween-80) is reported as 1 of 6; the survivor count (dose: 150.0 mg/kg/injection, schedule: Q04DX003 (ip), vehicle: alcohol) is listed as 3 of 6; the survivor count (dose: 225.0 mg/kg/injection, schedule: Q04DX003 (ip), vehicle: alcohol) is given as 1 of 6; the survivor count (dose: 335.0 mg/kg/injection, schedule: Q04DX003 (ip), vehicle: alcohol) is 2 of 6.

As to `COc1ccc2c(c1)sc(=N)n2C`, for the setting “dose: 400.0 mg/kg/injection, schedule: Q04DX002 (ip), vehicle: saline”, the survivor count was 1 of 3.
